pIC50, pKi: −log10 of the molar value. Like-named read-outs stand apart in the source and are kept apart here. Structures were worked out from names or drawings and are uncertain.
How the values were obtained:
[1] = Ligand charge of maytansinoid conjugates; assay type: physicochemical
human SSTR2 = human SSTR2 (Homo sapiens, UniProt P30874); assay: Radioligand-receptor binding assay, [125I] somatostatin, membranes from SSTR2 expressing CHO-K1 cells; conditions: read-out: SSTR2 Ki; [125I] somatostatin 0.03 nM, four hour incubation, Cheng and Prusoff
[2] = test system: NCI-H524 (ATCC) human lung cancer cells; assay: Inhibition of cell proliferation, CellTiter Glo, with and without octreotide competition; assay type: cell-based
Method: FIG. 1 is a graph of various conjugates represented as bars and showing on the Y-axis their activity in an H524 proliferation assay with and without competition by octreotide. […] This illustrates the suprprising finding that only maytansinoid conjugates show activity that is dependent on the receptor.
Conjugates were assessed in an in vitro assay evaluating inhibition of cell proliferation. NCI-H524 (ATCC) human lung cancer cells were plated in 96 well, V-bottomed plates (Costar) at a concentration of 5,000 cells/well and 24 hours later were treated with compound for 6 hours and further incubated 66 hours. Compound starting dose was 20 μM and three fold serial dilutions were done for a total of ten points. After 6 hours of treatment, cells were spun down, the drug containing media was removed, and fresh complete medium was added and used to resuspend the cells, which were spun again. […] Proliferation was measured using CellTiter Glo reagent using the standard protocol (Promega) and a Glomax multi+detection system (Promega). Percent proliferation inhibition was calculated using the following formula: % inhibition=(control-treatment)/control*100. […]
Conjugates were tested for their activity dependence on the somatostatin receptor. […] Proliferation IC50 values of the conjugates were measured. Proliferation IC50 values of the conjugates without octreotide competition were also measured. […]

Sequences of proteins named here, by UniProt entry; tags and fusion partners are left off.
UniProt P30874, whole entry: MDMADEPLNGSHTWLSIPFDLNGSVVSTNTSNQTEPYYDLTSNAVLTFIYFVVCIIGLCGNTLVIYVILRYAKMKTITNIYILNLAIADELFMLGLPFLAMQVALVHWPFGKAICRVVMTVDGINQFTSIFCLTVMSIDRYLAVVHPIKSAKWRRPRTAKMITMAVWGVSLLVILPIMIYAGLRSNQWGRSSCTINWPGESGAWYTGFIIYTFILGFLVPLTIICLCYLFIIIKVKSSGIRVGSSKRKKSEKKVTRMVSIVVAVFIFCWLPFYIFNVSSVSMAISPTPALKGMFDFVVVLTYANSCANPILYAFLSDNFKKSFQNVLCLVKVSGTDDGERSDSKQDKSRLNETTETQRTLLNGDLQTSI

Structure (SMILES): CCCCCCNC(=O)[C@@H](NC(=O)[C@@H]1CSSC[C@H](NC(=O)[C@@H](Cc2ccccc2)NCCCSSCCC(=O)N(C)[C@@H](C)C(=O)O[C@@H]2CC(=O)N(C)c3cc(cc(OC)c3Cl)C/C(C)=C/C=C/[C@@H](OC)[C@@]3(O)C[C@H](OC(=O)N3)[C@@H](C)[C@@H]3O[C@@]23C)C(=O)N[C@@H](Cc2ccc(O)cc2)C(=O)N[C@H](Cc2c[nH]c3ccccc23)C(=O)N[C@@H](CCCCN)C(=O)N[C@@H]([C@@H](C)O)C(=O)N1)[C@@H](C)O
- Ligand charge [1]: +2
- pKi (human SSTR2): 9.82
- pIC50 ([2]; read-out: H524 IC50 6 h, 6 hours treatment, further 66 hours incubation): 7.77
- pIC50 ([2]; read-out: H524 IC50 with 100 μM octreotide 6 h, with 100 μM octreotide competition, 6 h treatment): 6.68
